Article PMC8063088
Results are given in words; binding and its absence hold for the method and conditions named. A result given as binding can be weak or reduced; the word gives no strength. For some assays here: Where a sequence is shown, tags or fusion partners need not be part of it. For some assays here: Binding seen in cells or lysates may run through a third protein. Each block holds one molecule with its values, some of them ahead of it.

Protein sequences, listed by entry. Tags and fused reporters are not part of them. Lines headed by an entry give the natural chain unless they say otherwise; changes in a name come on top. Residues count along the entry.
UniProt P97798: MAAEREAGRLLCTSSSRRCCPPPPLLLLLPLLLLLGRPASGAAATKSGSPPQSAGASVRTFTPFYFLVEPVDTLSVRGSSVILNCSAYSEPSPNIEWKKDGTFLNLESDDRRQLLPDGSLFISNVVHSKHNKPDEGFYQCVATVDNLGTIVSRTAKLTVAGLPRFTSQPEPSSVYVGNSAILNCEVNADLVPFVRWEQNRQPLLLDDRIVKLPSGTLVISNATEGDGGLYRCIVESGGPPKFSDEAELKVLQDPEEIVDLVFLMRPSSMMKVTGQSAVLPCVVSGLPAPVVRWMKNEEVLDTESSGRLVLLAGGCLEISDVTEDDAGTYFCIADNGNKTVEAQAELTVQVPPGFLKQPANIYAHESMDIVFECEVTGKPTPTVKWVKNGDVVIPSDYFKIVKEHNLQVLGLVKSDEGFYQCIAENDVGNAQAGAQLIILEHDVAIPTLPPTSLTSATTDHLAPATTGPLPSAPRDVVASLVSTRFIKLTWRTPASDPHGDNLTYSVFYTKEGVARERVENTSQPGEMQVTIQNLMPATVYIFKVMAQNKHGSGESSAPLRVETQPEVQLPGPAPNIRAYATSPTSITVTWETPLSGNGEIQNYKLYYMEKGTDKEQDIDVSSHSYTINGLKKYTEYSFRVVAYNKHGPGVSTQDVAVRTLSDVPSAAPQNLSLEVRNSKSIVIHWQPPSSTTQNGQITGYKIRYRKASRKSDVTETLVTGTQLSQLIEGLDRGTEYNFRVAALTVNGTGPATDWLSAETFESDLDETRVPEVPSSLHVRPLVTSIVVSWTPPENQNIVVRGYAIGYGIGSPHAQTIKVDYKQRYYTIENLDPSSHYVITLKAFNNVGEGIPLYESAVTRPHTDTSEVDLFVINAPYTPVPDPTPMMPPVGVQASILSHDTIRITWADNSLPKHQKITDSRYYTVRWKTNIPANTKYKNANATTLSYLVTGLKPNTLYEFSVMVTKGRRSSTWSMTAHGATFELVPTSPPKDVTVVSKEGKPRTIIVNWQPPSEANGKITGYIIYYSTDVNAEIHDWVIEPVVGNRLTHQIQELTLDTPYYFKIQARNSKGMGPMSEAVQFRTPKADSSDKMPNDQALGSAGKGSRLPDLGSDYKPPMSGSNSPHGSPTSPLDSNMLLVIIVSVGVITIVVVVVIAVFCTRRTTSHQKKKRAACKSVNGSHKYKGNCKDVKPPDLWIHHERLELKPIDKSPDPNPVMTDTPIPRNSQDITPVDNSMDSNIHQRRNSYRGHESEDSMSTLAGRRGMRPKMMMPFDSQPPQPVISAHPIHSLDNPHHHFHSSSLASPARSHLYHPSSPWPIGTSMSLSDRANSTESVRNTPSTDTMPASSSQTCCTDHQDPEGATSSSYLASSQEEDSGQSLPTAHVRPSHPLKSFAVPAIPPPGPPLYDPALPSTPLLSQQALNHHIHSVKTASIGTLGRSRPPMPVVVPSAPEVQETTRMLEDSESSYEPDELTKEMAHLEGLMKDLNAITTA
wild type mouse NEO1 (pCMVXL-6-NEO1): residues 37-1492 of P97798
GFP-NEO1 (pcDNA3.1-CMV-GFP-NEO1): residues 46-1492 of P97798
UniProt Q6PCX7: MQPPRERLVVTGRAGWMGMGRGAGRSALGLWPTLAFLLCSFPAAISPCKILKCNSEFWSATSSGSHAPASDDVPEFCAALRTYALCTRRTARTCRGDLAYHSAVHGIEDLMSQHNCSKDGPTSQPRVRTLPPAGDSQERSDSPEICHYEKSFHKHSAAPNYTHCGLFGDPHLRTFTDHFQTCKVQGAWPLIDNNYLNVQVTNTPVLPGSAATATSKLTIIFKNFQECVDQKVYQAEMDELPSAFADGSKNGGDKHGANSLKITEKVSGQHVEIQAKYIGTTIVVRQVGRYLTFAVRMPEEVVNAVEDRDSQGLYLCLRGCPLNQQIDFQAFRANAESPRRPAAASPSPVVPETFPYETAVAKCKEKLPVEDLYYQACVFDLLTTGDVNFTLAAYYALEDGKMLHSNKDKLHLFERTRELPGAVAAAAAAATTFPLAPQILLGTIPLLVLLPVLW

Key:
[1] = molecular target: GFP-NEO1 (pcDNA3.1-CMV-GFP-NEO1) (mouse) (UniProt P97798); experiment: AP-ligand binding to cells; COS-7 cells transfected with wild type mouse NEO1, GFP-NEO1 or empty pcDNA3.1; AP-ligands 75 min at RT in HBHA buffer; bound AP shown with NBT/BCIP
[2] = molecular target: wild type mouse NEO1 (pCMVXL-6-NEO1) (mouse) (UniProt P97798); experiment: as above
[3] = molecular target: NEO1-mVenus fusion protein (mouse) (UniProt Q7TQG5); experiment: proximity ligation; same PLA as a5, read for full-length RGMB and NEO1-mVenus co-transfected in COS-7 cells
[4] = molecular target: NEO1 FN type III domains 4 to 6 (NEO1_(FN456)) (mouse); experiment: crystal structure; ternary NEO1_(FN456):NET1_(ΔNTR):RGMB_(CORE) complex, equimolar mix, SEC-purified, endoglycosidase F1-treated, 3 mM sucrose octasulfate; 3.25 Å; 3:3:3 trimer-of-trimers; both purified
[5] = molecular target: NEO1 FN type III domains 4 to 6 (NEO1_(FN456)) (mouse); experiment: SEC; binary NEO1_(FN456) with RGMAECD or RGMCECD; Superose 6 Increase 10/300 GL, 150 mM NaCl, 10 mM HEPES pH 7.5, 2 mM CaCl2, 21 °C; fractions on SDS-PAGE; both purified
[6] = molecular target: NEO1 FN type III domains 4 to 6 (NEO1_(FN456)) (mouse); experiment: SEC-MALS; ternary NEO1_(FN456)-NET1_(ΔNTR)-RGMBECD (1.0 mg/ml, Superdex 200 10/30) and -RGMAECD (1.8 mg/ml, Superose 6 Increase 10/300); 150 mM NaCl, 10 mM HEPES pH 7.5, 2 mM CaCl2, 1 mM sucrose octasulfate, 21 °C; both purified
[7] = molecular target: NEO1 FN type III domains 4 to 6 (NEO1_(FN456)) (mouse); experiment: SEC; ternary NET1-NEO1-RGMC; Superose 6 Increase 10/300 GL, 150 mM NaCl, 10 mM HEPES pH 7.5, 2 mM CaCl2, 1 mM sucrose octasulfate, 21 °C; input 0.6 ml at 2.6 mg/ml; SDS-PAGE; both purified
[8] = molecular target: NEO1-mVenus fusion protein (mouse) (UniProt Q7TQG5); experiment: proximity ligation; same PLA as a3, read for the soluble ligands against NEO1-mVenus on COS-7 cells; only the binder purified
[9] = molecular target: NEO1 FN type III domains 4 to 6 (NEO1_(FN456)) (mouse); experiment: cryo-EM structure; ternary NEO1_(FN456)-NET1_(ΔNTR)-RGMBECD, SEC peak fraction at 0.07 mg/ml; C3 symmetry; 6.0 Å; both purified
[10] = molecular target: NEO1 FN type III domains 4 to 6 (NEO1_(FN456)) (mouse); experiment: SEC-SAXS; ternary NEO1_(FN456)-NET1_(ΔNTR)-RGMBECD at 3.3, 4.0 and 6.0 mg/ml; 10 mM Tris pH 7.5, 150 mM NaCl, 3 mM CaCl2, 1 mM KNO3; 298 K; both purified
[11] = molecular target: NEO1 FN type III domains 4 to 6 (NEO1_(FN456)) (mouse); experiment: SEC; ternary NEO1_(FN456)-NET1_(ΔNTR)-RGMBECD on S200 10/300 Increase; 10 mM HEPES pH 7.5, 150 mM NaCl, 2 mM CaCl2, 1 mM SOS, 4 °C; fractions on SDS-PAGE; both purified
[12] = molecular target: NEO1 FN type III domains 4 to 6 (NEO1_(FN456)) (mouse); experiment: AUC; sedimentation velocity, 20 °C; ternary NEO1_(FN456)-NET1_(ΔNTR)-RGMBECD complexes (NET1 wild type or Interface-1/-2 mutants) mixed equimolar, 10 mM HEPES pH 7.5, 150 mM NaCl, 2 mM CaCl2; both purified

Molecule: RGMA-AP (from UniProt Q6PCX7) (ligand)
binding [1]: binds
binding [2]: binds

Molecule: full-length GPI-anchored RGMB (RGMBFL), N-terminal FLAG (from UniProt Q6NW40) (ligand)
binding [3]: binds

B2: full-length extracellular domain of human RGMA (RGMAECD) (ligand, UniProt Q96B86 47-423)
chain: PCKILKCNSEFWSATSGSHAPASDDTPEFCAALRSYALCTRRTARTCRGDLAYHSAVHGIEDLMSQHNCSKDGPTSQPRLRTLPPAGDSQERSDSPEICHYEKSFHKHSATPNYTHCGLFGDPHLRTFTDRFQTCKVQGAWPLIDNNYLNVQVTNTPVLPGSAATATSKLTIIFKNFQECVDQKVYQAEMDELPAAFVDGSKNGGDKHGANSLKITEKVSGQHVEIQAKYIGTTIVVRQVGRYLTFAVRMPEEVVNAVEDWDSQGLYLCLRGCPLNQQIDFQAFHTNAEGTGARRLAAASPAPTAPETFPYETAVAKCKEKLPVEDLYYQACVFDLLTTGDVNFTLAAYYALEDVKMLHSNKDKLHLYERTRDLPGR
binding [5]: binds
binding [6]: binds

B4: RGMBECD wild type, N-terminal FLAG and C-terminal His6 (ligand, UniProt Q6NW40 53-412)
chain: QCRIQKCTTDFVSLTSHLNSAVDGFDSEFCKALRAYAGCTQRTSKACRGNLVYHSAVLGISDLMSQRNCSKDGPTSSTNPEVTHDPCNYHSHAGAREHRRGDQNPPSYLFCGLFGDPHLRTFKDNFQTCKVEGAWPLIDNNYLSVQVTNVPVVPGSSATATNKITIIFKAHHECTDQKVYQAVTDDLPAAFVDGTTSGGDSDAKSLRIVERESGHYVEMHARYIGTTVFVRQVGRYLTLAIRMPEDLAMSYEESQDLQLCVNGCPLSERIDDGQGQVSAILGHSLPRTSLVQAWPGYTLETANTQCHEKMPVKDIYFQSCVFDLLTTGDANFTAAAHSALEDVEALHPRKERWHIFPSSG
binding [8]: binds

Other lines, results leading:

binding [4]: binds
B1: RGMB NEO1-binding region (RGMB_(CORE)) (domain or fragment, UniProt Q6NW40 137-334)
chain: DPCNYHSHAGAREHRRGDQNPPSYLFCGLFGDPHLRTFKDNFQTCKVEGAWPLIDNNYLSVQVTNVPVVPGSSATATNKITIIFKAHHECTDQKVYQAVTDDLPAAFVDGTTSGGDSDAKSLRIVERESGHYVEMHARYIGTTVFVRQVGRYLTLAIRMPEDLAMSYEESQDLQLCVNGCPLSERIDDGQGQVSAILG

binding [5]: binds
binding [7]: binds
B3: full-length extracellular domain of RGMC (RGMCECD) (ligand, UniProt Q6ZVN8 36-400)
chain: QCKILRCNAEYVSSTLSLRGGGSSGALRGGGGGGRGGGVGSGGLCRALRSYALCTRRTARTCRGDLAFHSAVHGIEDLMIQHNCSRQGPTAPPPPRGPALPGAGSGLPAPDPCDYEGRFSRLHGRPPGFLHCASFGDPHVRSFHHHFHTCRVQGAWPLLDNDFLFVQATSSPMALGANATATRKLTIIFKNMQECIDQKVYQAEVDNLPVAFEDGSINGGDRPGGSSLSIQTANPGNHVEIQAAYIGTTIIIRQTAGQLSFSIKVAEDVAMAFSAEQDLQLCVGGCPPSQRLSRSERNRRGAITIDTARRLCKEGLPVEDAYFHSCVFDVLISGDPNFTVAAQAALEDARAFLPDLEKLHLFPSD

binding [9]: binds
binding [10]: binds
binding [11]: binds
binding [12]: binds
binding [6]: binds
B5: full-length ectodomain of RGMB (RGMBECD), C-terminal His6 (ligand, UniProt Q6NW40 53-412)
chain: QCRIQKCTTDFVSLTSHLNSAVDGFDSEFCKALRAYAGCTQRTSKACRGNLVYHSAVLGISDLMSQRNCSKDGPTSSTNPEVTHDPCNYHSHAGAREHRRGDQNPPSYLFCGLFGDPHLRTFKDNFQTCKVEGAWPLIDNNYLSVQVTNVPVVPGSSATATNKITIIFKAHHECTDQKVYQAVTDDLPAAFVDGTTSGGDSDAKSLRIVERESGHYVEMHARYIGTTVFVRQVGRYLTLAIRMPEDLAMSYEESQDLQLCVNGCPLSERIDDGQGQVSAILGHSLPRTSLVQAWPGYTLETANTQCHEKMPVKDIYFQSCVFDLLTTGDANFTAAAHSALEDVEALHPRKERWHIFPSSG
